# Results from one PubChem assay

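Viability of UOK109 TFE3-fusion renal carcinoma cells after 48 h of compound exposure, read as ATP luminescence with CellTiter-Glo. Each compound was run as a concentration series, and the potency comes from that titration. The number is the fitted AC50 for loss of viability; a lower value means a more potent compound. All of these compounds are filed inconclusive. An active call needs an area-under-curve z-score below -0.8 in all three TFE3-fusion lines, and an inactive call needs flat class-4 curves in all three.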

Values are in µM. All entries here are filed as inconclusive. Only part of the assay is shown, chiefly results filed as inconclusive. Potencies fitted to partial, single-point or poorly fitting curves are rough. Some entries filed as inconclusive have a full curve. Activity scores are not listed here.

SMILES	setting	Potency (µM)	curve as filed
Cc1ccc(CN2CCNCC2)cc1NC(=O)CNc1ccc(F)c(F)c1	active = Z-AUC below -0.8 in all three lines	10.49	falling, single point
CC(C)c1cc(C(C)C)c(CC(=O)NS(=O)(=O)Oc2c(C(C)C)cccc2C(C)C)c(C(C)C)c1	active = Z-AUC below -0.8 in all three lines	18.65	falling, partial curve
CC(C)C[C@H](NC(=O)[C@@H](O)[C@H](N)Cc1ccccc1)C(=O)O	active = Z-AUC below -0.8 in all three lines	18.65	falling, partial curve
CCCCc1ccc(NS(=O)(=O)c2ccc(C)c(C(=O)N3CCN(c4cccc(C)c4C)CC3)c2)cc1	active = Z-AUC below -0.8 in all three lines	41.76	-
CN[C@@H](C)C(=O)N[C@H]1CN(C(=O)CC(C)C)CC[C@H]2CC[C@@H](C(=O)NC(c3ccccc3)c3ccccc3)N2C1=O	active = Z-AUC below -0.8 in all three lines	1.321	falling, full curve
Oc1cc2c(cc1O)C1c3ccc(O)c(O)c3OCC1(O)C2 (stereo not shown)	active = Z-AUC below -0.8 in all three lines	0.02635	-
C=CC(=O)N1CCC[C@@H](n2nc(-c3ccc(Oc4ccccc4)cc3)c3c(N)ncnc32)C1	active = Z-AUC below -0.8 in all three lines	7.427	falling, partial curve
COc1ccc(CCC(=O)Nc2nc3ccc(Cl)cc3s2)cc1OC	active = Z-AUC below -0.8 in all three lines	23.48	falling, single point
CCCCCCNC(=O)n1cc(F)c(=O)[nH]c1=O	active = Z-AUC below -0.8 in all three lines	20.93	falling, partial curve, poor fit
CC(C)Oc1cc(Nc2nc(N[C@@H](C)c3ccc(F)cn3)ncc2Cl)[nH]n1	active = Z-AUC below -0.8 in all three lines	11.77	falling, partial curve
CCC1(c2ccc(N)cc2)CCC(=O)NC1=O (stereo not shown)	-	0.2635	-
CCCCCC[C@H]1C(=O)O[C@H](C)[C@H](NC(=O)c2cccc(NC=O)c2O)C(=O)O[C@@H](C)[C@@H]1OC(=O)CC(C)C	-	0.2635	falling, full curve
CN(C)CCCN=c1c2ccccc2n(C)c2[nH]c(=O)n(C)c(=O)c12	active = Z-AUC below -0.8 in all three lines	2.957	falling, full curve
COc1ccc(-c2oc3c(CC=C(C)C)c(O)cc(O)c3c(=O)c2O)cc1	active = Z-AUC below -0.8 in all three lines	18.65	falling, partial curve
N[C@@H](Cc1ccc(N(CCCl)CCCl)cc1)C(=O)O	-	37.22	-
c1ccc(CCCN2CCN(CCOC(c3ccccc3)c3ccccc3)CC2)cc1	-	18.65	falling, partial curve, poor fit
CN(Cc1cnc2nc(N)nc(N)c2n1)c1ccc(C(=O)N[C@@H](CCC(=O)O)C(=O)O)cc1	active = Z-AUC below -0.8 in all three lines	0.2635	falling, full curve
COc1cc(C=CC(=O)CC(=O)C=Cc2ccc(O)c(OC)c2)ccc1O	active = Z-AUC below -0.8 in all three lines	38.2	falling, partial curve
Cc1cnc(Nc2ccc(F)cc2Cl)nc1-c1c[nH]c(C(=O)N[C@H](CO)c2cccc(Cl)c2)c1	active = Z-AUC below -0.8 in all three lines	0.4176	falling, full curve
COC1(CS(=O)c2ccccc2)CCN(CCc2c[nH]c3ccc(F)cc23)CC1 (stereo not shown)	-	18.65	falling, partial curve, poor fit
CCC[C@H](NC(=O)C(C#N)=Cc1cccc(Br)n1)c1ccccc1	active = Z-AUC below -0.8 in all three lines	8.333	falling, partial curve
COc1ccc(C(CN(C)C)C2(O)CCCCC2)cc1 (stereo not shown)	-	3.722	falling, partial curve, poor fit
COc1ccc2c3n(c(=NC(=O)c4cccnc4)nc2c1OC)CCN3	active = Z-AUC below -0.8 in all three lines	5.258	falling, partial curve
Cc1ccn(-c2ccc(-c3ncco3)cc2)c(=O)c1-c1ccc2nc(N)ncc2c1	active = Z-AUC below -0.8 in all three lines	9.35	falling, partial curve
Oc1cc(-c2nc(-c3ccccc3)[nH]c2-c2ccncc2)ccc1Cl	active = Z-AUC below -0.8 in all three lines	13.21	falling, partial curve
NS(=O)(=O)OC[C@@H]1C[C@@H](n2ccc3c(N[C@H]4CCc5ccccc54)ncnc32)C[C@H]1O	active = Z-AUC below -0.8 in all three lines	9.35	falling, partial curve
CN1CCc2c(c3ccccc3n2Cc2ccc(C(=O)NO)cc2)C1	active = Z-AUC below -0.8 in all three lines	18.65	falling, partial curve
Cc1ccc(C(=O)Nc2cccc(C(F)(F)F)c2)cc1-c1ccc2nc(NCCN3CCOCC3)ncc2c1	active = Z-AUC below -0.8 in all three lines	4.686	falling, full curve
CCOC(=O)N1CCN([N+]([O-])=NOc2ccc([N+](=O)[O-])cc2C#N)CC1	active = Z-AUC below -0.8 in all three lines	3.317	falling, full curve
CC(C)c1cnn2c(NCc3ccccc3)cc(NCCCCCCN)nc12	active = Z-AUC below -0.8 in all three lines	3.317	falling, full curve
Cc1ccc(N(CC2=NCCN2)c2cccc(O)c2)cc1	active = Z-AUC below -0.8 in all three lines	26.35	falling, partial curve
O=C(Nc1nc2ccccc2n1CCN1CCOCC1)c1cccc([N+](=O)[O-])c1	active = Z-AUC below -0.8 in all three lines	14.82	falling, single point
COc1ccc(-c2c(-c3ccc(O)cc3O)n[nH]c2C)cc1	active = Z-AUC below -0.8 in all three lines	17.06	-
Cc1nnc(NS(=O)(=O)c2ccc(N)cc2)s1	active = Z-AUC below -0.8 in all three lines	1.663	falling, full curve

The last 4 entries again:

| SMILES | setting | Potency (µM) | curve as filed |
|---|---|---|---|
| `Cc1ccc(N(CC2=NCCN2)c2cccc(O)c2)cc1` | active = Z-AUC below -0.8 in all three lines | 26.35 | falling, partial curve |
| `O=C(Nc1nc2ccccc2n1CCN1CCOCC1)c1cccc([N+](=O)[O-])c1` | active = Z-AUC below -0.8 in all three lines | 14.82 | falling, single point |
| `COc1ccc(-c2c(-c3ccc(O)cc3O)n[nH]c2C)cc1` | active = Z-AUC below -0.8 in all three lines | 17.06 | - |
| `Cc1nnc(NS(=O)(=O)c2ccc(N)cc2)s1` | active = Z-AUC below -0.8 in all three lines | 1.663 | falling, full curve |

From PubChem BioAssay record AID1963991 (NCATS, 2024).